This is one part of the list. Repeats are few or missing, and single values can be far off.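 The apoptosis fraction was the count of cleaved-PARP antibody-stained nuclei relative to all DNA-stained nuclei, imaged in 1,536-well plates. Screening doses were set so most cells survived, and baseline and induced cleaved-PARP levels vary greatly across cell lines.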
system: MeWo; assay: cleaved PARP positive nuclei fraction relative to DMSO control; melanoma cells; higher = more apoptosis; conditions: library dose: low library concentration; 72 h

Row | Compound | cleaved PARP positive nuclei fraction
1 | CO[C@H]1C[C@@H]2CC[C@@H](C)[C@@](O)(O2)C(=O)C(=O)N2CCCC[C@H]2C(=O)O[C@H]([C@H](C)C[C@@H]2CC[C@@H](OCCO)[C@H](OC)C2)CC(=O)[C@H](C)/C=C(\C)[C@@H](O)[C@@H](OC)C(=O)[C@H](C)C[C@H](C)/C=C/C=C/C=C/1C [everolimus] + c1cc(-c2cnn3cc(-c4ccc(OCCN5CCCCC5)cc4)cnc23)ccn1 [Dorsomorphin] (first compound 0.02 µM, partner dose 0.4 µM) | 35%
2 | Cn1c(=O)n(-c2ccc(C(C)(C)C#N)cc2)c2c3cc(-c4cnc5ccccc5c4)ccc3ncc21 + CO[C@H]1C[C@@H]2CC[C@@H](C)[C@@](O)(O2)C(=O)C(=O)N2CCCC[C@H]2C(=O)O[C@H]([C@H](C)C[C@@H]2CC[C@@H](OCCO)[C@H](OC)C2)CC(=O)[C@H](C)/C=C(\C)[C@@H](O)[C@@H](OC)C(=O)[C@H](C)C[C@H](C)/C=C/C=C/C=C/1C [everolimus] (first compound 0.004 µM, partner dose 0.02 µM) | 230%
3 | C[C@@H](Oc1cc(-c2cnn(C3CCNCC3)c2)cnc1N)c1c(Cl)ccc(F)c1Cl [Crizotinib] + CNC(=O)c1cc(Oc2ccc(NC(=O)Nc3ccc(Cl)c(C(F)(F)F)c3)cc2)ccn1 [sorafenib] (first compound 0.2 µM, partner dose 0.4 µM) | 72.8%
4 | CO[C@H]1C[C@@H]2CC[C@@H](C)[C@@](O)(O2)C(=O)C(=O)N2CCCC[C@H]2C(=O)O[C@H]([C@H](C)C[C@@H]2CC[C@@H](OCCO)[C@H](OC)C2)CC(=O)[C@H](C)/C=C(\C)[C@@H](O)[C@@H](OC)C(=O)[C@H](C)C[C@H](C)/C=C/C=C/C=C/1C [everolimus] + O=C(Nc1cccc(Cl)c1)Nc1ncc(CCNc2ncnc3ccsc23)s1 [SNS314] (first compound 0.02 µM, partner dose 0.0008 µM) | 37.9%
5 | CO[C@H]1C[C@@H]2CC[C@@H](C)[C@@](O)(O2)C(=O)C(=O)N2CCCC[C@H]2C(=O)O[C@H]([C@H](C)C[C@@H]2CC[C@@H](OCCO)[C@H](OC)C2)CC(=O)[C@H](C)/C=C(\C)[C@@H](O)[C@@H](OC)C(=O)[C@H](C)C[C@H](C)/C=C/C=C/C=C/1C [everolimus] + Oc1nc(-c2ccc(C(F)(F)F)cc2)nc2c1CSCC2 [XAV939] (first compound 0.02 µM, partner dose 2 µM) | 241%
6 | CO[C@H]1C[C@@H]2CC[C@@H](C)[C@@](O)(O2)C(=O)C(=O)N2CCCC[C@H]2C(=O)O[C@H]([C@H](C)C[C@@H]2CC[C@@H](OCCO)[C@H](OC)C2)CC(=O)[C@H](C)/C=C(\C)[C@@H](O)[C@@H](OC)C(=O)[C@H](C)C[C@H](C)/C=C/C=C/C=C/1C [everolimus] + Cc1nc(Nc2ncc(C(=O)Nc3c(C)cccc3Cl)s2)cc(N2CCN(CCO)CC2)n1 [dasatanib] (first compound 0.02 µM, partner dose 0.004 µM) | 137%
7 | CO[C@H]1C[C@@H]2CC[C@@H](C)[C@@](O)(O2)C(=O)C(=O)N2CCCC[C@H]2C(=O)O[C@H]([C@H](C)C[C@@H]2CC[C@@H](OCCO)[C@H](OC)C2)CC(=O)[C@H](C)/C=C(\C)[C@@H](O)[C@@H](OC)C(=O)[C@H](C)C[C@H](C)/C=C/C=C/C=C/1C [everolimus] + CC1(C)NC(=O)N(c2ccc([N+](=O)[O-])c(C(F)(F)F)c2)C1=O [nilutamide] (first compound 0.02 µM, partner dose 1 µM) | 459%
8 | CO[C@H]1C[C@@H]2CC[C@@H](C)[C@@](O)(O2)C(=O)C(=O)N2CCCC[C@H]2C(=O)O[C@H]([C@H](C)C[C@@H]2CC[C@@H](OCCO)[C@H](OC)C2)CC(=O)[C@H](C)/C=C(\C)[C@@H](O)[C@@H](OC)C(=O)[C@H](C)C[C@H](C)/C=C/C=C/C=C/1C [everolimus] + Nc1cccc2c1CN(C1CCC(=O)NC1=O)C2=O [lenalidomide] (first compound 0.02 µM, partner dose 1 µM) | 147%
9 | CO[C@H]1C[C@@H]2CC[C@@H](C)[C@@](O)(O2)C(=O)C(=O)N2CCCC[C@H]2C(=O)O[C@H]([C@H](C)C[C@@H]2CC[C@@H](OCCO)[C@H](OC)C2)CC(=O)[C@H](C)/C=C(\C)[C@@H](O)[C@@H](OC)C(=O)[C@H](C)C[C@H](C)/C=C/C=C/C=C/1C [everolimus] + Nc1nc(F)nc2c1ncn2[C@@H]1O[C@H](CO)[C@@H](O)[C@@H]1O [fludarabine] (first compound 0.02 µM, partner dose 0.2 µM) | 522%
